This is one part of the list. Most values lie at the level of the controls, where differences are scatter.

Amino acid sequences for entries named in this document (tags omitted). A change or cut given only in a name is not applied to a line headed by its entry.
UniProt Q96GM5, whole entry: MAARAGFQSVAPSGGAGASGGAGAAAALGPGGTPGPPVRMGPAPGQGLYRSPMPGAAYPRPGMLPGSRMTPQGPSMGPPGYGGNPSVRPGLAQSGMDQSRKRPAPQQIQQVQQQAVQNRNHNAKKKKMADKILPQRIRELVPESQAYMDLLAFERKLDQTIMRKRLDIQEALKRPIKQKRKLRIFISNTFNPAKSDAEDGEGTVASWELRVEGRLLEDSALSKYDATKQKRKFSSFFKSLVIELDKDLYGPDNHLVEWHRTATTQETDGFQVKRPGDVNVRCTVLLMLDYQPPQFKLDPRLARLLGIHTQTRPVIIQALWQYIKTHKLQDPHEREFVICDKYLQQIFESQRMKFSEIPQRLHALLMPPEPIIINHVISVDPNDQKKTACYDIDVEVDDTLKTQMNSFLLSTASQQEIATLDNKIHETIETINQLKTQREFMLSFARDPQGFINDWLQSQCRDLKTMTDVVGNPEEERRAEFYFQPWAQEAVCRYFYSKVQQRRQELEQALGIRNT
UniProt Q96MX6, whole entry: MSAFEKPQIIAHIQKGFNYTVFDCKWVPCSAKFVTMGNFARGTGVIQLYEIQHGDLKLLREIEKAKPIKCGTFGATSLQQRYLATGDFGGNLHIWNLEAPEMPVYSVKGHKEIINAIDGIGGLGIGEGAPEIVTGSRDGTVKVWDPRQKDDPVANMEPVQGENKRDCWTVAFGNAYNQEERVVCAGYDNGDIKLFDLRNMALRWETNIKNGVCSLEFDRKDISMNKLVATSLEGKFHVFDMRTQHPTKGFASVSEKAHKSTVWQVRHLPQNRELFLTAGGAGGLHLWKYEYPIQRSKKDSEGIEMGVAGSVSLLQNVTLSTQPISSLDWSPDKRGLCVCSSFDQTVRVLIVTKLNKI
UniProt Q96JN8: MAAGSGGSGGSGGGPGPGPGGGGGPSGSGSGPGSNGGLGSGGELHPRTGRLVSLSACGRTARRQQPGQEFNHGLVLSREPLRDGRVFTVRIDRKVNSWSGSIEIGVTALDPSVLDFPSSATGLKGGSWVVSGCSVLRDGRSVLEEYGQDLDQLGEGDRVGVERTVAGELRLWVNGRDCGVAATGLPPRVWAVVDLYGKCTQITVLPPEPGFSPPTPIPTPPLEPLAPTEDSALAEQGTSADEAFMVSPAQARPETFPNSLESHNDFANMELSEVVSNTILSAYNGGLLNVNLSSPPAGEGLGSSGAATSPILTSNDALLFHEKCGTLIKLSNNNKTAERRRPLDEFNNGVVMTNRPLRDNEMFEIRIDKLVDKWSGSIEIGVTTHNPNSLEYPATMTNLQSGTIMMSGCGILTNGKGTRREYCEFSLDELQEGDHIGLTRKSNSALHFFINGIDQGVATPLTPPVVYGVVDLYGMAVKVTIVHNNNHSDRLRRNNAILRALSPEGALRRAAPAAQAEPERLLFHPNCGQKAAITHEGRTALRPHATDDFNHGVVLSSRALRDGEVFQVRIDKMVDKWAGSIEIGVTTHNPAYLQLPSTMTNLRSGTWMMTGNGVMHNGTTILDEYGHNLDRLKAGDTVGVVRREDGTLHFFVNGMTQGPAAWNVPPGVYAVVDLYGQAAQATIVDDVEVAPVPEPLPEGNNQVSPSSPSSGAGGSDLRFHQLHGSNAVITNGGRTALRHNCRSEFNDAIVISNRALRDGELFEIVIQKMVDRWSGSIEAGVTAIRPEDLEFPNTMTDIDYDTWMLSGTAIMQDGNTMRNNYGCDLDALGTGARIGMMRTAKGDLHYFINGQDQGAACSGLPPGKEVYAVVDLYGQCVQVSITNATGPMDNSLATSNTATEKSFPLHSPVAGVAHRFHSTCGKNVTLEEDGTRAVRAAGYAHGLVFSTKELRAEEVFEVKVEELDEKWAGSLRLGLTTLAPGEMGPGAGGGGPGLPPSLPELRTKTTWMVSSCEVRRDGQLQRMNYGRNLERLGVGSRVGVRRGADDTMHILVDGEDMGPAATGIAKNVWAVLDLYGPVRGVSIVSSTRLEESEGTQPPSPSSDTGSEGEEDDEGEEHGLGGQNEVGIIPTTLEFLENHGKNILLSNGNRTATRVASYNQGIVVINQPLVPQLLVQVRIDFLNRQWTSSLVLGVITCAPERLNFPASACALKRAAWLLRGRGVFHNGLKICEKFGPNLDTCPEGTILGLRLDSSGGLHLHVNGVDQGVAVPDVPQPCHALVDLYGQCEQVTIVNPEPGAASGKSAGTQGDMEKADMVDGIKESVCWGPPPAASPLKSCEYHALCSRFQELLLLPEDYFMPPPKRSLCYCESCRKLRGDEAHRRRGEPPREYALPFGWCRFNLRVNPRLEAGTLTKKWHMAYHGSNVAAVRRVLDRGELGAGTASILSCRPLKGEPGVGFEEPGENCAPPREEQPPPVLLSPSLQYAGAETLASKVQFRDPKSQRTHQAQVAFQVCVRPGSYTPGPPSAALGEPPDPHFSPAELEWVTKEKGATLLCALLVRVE
UniProt Q96IY4: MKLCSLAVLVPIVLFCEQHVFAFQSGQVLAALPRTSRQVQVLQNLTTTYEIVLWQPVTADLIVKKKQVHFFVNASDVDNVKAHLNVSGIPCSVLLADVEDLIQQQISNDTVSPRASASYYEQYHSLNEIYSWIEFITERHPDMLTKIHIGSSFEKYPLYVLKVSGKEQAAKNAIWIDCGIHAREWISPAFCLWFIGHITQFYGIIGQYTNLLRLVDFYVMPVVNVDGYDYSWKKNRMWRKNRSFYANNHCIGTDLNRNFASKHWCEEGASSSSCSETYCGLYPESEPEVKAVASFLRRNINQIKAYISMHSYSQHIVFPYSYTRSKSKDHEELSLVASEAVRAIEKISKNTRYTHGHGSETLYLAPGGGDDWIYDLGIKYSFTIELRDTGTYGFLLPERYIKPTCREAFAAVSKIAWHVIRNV
UniProt Q96GS4: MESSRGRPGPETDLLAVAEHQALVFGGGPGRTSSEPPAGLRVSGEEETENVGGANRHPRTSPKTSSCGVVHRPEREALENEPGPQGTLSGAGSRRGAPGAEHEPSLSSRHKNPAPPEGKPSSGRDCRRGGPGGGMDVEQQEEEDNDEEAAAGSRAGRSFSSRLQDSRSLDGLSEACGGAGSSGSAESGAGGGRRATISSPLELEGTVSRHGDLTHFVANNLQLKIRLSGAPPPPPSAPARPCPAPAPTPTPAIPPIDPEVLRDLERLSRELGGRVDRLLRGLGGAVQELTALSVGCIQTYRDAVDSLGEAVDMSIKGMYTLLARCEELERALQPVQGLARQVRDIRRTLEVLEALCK
UniProt Q96Q04: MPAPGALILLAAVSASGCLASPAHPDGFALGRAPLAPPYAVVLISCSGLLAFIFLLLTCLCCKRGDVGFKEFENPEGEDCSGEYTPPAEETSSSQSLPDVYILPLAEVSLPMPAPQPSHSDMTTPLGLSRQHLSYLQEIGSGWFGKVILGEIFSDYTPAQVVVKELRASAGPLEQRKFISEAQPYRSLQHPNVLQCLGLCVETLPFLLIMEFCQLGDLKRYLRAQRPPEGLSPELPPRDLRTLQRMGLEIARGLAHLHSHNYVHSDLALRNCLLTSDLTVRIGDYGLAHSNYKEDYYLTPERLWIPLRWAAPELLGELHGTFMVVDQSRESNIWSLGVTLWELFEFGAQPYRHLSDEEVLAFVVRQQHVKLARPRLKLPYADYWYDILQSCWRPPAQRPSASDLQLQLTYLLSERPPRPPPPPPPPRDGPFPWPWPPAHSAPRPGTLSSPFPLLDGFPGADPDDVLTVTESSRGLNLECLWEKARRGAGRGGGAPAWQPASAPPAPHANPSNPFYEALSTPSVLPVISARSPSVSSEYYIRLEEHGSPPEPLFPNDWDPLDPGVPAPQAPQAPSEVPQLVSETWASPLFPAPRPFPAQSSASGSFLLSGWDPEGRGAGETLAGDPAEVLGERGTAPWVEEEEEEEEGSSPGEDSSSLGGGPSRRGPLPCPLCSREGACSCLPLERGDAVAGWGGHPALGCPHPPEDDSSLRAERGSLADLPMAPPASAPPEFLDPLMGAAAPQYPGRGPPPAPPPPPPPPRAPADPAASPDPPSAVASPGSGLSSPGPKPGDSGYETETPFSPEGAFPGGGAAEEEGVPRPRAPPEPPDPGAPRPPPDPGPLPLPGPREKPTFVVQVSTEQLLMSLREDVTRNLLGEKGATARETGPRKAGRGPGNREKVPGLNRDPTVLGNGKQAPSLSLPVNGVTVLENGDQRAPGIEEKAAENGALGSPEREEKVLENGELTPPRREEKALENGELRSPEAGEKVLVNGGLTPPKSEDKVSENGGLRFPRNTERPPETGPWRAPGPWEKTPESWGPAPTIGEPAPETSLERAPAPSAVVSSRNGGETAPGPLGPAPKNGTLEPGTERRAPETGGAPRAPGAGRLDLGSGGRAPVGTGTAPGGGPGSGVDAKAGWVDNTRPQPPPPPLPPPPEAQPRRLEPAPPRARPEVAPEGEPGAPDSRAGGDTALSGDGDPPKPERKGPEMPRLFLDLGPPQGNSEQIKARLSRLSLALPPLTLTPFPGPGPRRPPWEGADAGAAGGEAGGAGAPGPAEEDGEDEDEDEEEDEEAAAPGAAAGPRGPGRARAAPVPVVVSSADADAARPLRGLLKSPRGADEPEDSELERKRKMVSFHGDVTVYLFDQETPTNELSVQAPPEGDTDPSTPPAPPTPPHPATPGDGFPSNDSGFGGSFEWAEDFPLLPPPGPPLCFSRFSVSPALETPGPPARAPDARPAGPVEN
UniProt Q96JA3: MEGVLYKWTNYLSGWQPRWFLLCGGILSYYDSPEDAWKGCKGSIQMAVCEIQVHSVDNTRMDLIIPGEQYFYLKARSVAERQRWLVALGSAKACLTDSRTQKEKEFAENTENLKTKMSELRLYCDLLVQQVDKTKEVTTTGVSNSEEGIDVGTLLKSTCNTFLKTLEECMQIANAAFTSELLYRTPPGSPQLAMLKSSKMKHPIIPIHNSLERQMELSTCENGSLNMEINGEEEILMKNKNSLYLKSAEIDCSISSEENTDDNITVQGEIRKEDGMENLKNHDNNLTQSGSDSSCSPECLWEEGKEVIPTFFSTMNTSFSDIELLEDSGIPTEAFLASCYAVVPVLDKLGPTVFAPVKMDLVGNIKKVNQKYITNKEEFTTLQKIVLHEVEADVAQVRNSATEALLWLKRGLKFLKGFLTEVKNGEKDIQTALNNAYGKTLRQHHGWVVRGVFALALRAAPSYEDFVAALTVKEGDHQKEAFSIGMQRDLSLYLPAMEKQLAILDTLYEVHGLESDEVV
UniProt Q96FQ7: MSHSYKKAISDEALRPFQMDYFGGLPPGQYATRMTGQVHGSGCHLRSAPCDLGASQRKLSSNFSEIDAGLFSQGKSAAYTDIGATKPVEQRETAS
UniProt Q96HA1, whole entry: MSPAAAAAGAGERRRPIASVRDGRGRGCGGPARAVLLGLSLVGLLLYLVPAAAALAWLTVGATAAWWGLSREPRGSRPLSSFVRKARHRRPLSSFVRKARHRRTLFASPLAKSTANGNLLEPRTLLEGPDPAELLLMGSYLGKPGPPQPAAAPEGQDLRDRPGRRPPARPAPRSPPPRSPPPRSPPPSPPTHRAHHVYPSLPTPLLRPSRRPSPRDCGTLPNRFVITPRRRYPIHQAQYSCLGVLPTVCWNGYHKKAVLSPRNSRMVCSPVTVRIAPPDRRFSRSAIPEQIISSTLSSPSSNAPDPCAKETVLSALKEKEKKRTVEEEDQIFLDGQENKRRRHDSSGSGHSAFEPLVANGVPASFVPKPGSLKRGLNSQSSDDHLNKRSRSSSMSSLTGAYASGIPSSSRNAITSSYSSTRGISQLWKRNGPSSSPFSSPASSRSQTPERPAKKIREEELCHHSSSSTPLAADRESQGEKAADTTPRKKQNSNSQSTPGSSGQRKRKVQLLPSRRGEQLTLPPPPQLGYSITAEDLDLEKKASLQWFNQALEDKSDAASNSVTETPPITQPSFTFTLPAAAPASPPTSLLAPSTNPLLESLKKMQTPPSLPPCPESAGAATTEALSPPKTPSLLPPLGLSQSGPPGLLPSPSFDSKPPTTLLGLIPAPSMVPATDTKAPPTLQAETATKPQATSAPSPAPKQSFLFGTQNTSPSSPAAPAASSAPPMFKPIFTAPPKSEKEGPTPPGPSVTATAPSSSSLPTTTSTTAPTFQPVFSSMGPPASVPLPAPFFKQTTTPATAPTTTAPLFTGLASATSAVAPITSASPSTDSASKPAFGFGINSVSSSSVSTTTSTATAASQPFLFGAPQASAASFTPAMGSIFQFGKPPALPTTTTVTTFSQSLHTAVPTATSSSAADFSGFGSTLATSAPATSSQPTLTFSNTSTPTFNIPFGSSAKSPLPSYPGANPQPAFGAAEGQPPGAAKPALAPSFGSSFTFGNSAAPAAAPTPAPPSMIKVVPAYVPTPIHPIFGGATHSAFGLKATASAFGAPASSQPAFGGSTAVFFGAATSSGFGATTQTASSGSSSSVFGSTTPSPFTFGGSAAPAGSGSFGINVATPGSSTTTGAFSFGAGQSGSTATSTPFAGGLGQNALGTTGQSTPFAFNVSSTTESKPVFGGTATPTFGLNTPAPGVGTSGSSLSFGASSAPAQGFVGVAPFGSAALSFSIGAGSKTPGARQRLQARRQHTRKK

log2 fold change data for 28 targets are collected here from the supplement of paper PMC12819154, “High-throughput peptide-centric local stability assay extends protein–ligand identification to membrane proteins, tissues and bacteria” (Nature Structural & Molecular Biology, 2025).

Compound in this assay: Cc1nc(Nc2ncc(C(=O)Nc3c(C)cccc3Cl)s2)cc(N2CCN(CCO)CC2)n1 [dasatinib]
Kind of assay: log2 fold change of tryptic peptide abundance, ligand vs vehicle (limited proteolysis) (log2 ratio); higher = more trypsin-susceptible (destabilized). The settings on record: ligand concentration: 5 uM; sample: K562 cleared lysate.
In the case of “SMARCD1 (peptide sequence: LLEDSALSKYDATK, peptide start residue: 215) (UniProt Q96GM5)”, the log2 fold change was -0.583.
For “UniProt Q96KC2 (peptide sequence: AAVLIFANK, peptide start residue: 118)”, the log2 fold change was -0.282.
In the case of “INTS4 (peptide sequence: HLTDTSHGVR, peptide start residue: 158) (UniProt Q96HW7)”, the log2 fold change is -0.376.
As for “CCDC136 (peptide sequence: MQLQLQTELR, peptide start residue: 391) (UniProt Q96JN2)”, the log2 fold change is -0.535.
As to “ZNF830 (peptide sequence: RKAPDADDQDVK, peptide start residue: 103) (UniProt Q96NB3)”, the log2 fold change was -0.54.
As for “CCDC97 (peptide sequence: EPDKGCIEPGPGHWGELSR, peptide start residue: 12) (UniProt Q96F63)”, the figure is 0.109; as for “WDR92 (peptide sequence: CGTFGATSLQQR, peptide start residue: 70) (UniProt Q96MX6)”, 0.116.
The same measure for “CNRIP1 (peptide sequence: LLTGSSYK, peptide start residue: 40) (UniProt Q96F85)”: -0.111.
Take “ZNF414 (peptide sequence: RPQGGSDAPSGACR, peptide start residue: 299) (UniProt Q96IQ9)”: the log2 fold change is -0.725.
The same measure for “NEURL4 (peptide sequence: SAGTQGDMEK, peptide start residue: 1303) (UniProt Q96JN8)”: -0.435.
As for “NUDCD1 (peptide sequence: KNEGLTWPELVIGDK, peptide start residue: 351) (UniProt Q96RS6)”, the figure is -0.559; as for “ELMO2 (peptide sequence: SLSYSEILR, peptide start residue: 501) (UniProt Q96JJ3)”, 0.102; as for “UniProt Q96JM3 (peptide sequence: SPPASPESWK, peptide start residue: 382)”, -0.3.
As for “C7orf26 (peptide sequence: LVSMAVAVCR, peptide start residue: 117) (UniProt Q96N11)”, the figure is 0.188; as for “UniProt Q96IY4 (peptide sequence: VSGKEQAAK, peptide start residue: 163)”, -0.00749; as for “UniProt Q96GS4 (peptide sequence: GAPGAEHEPSLSSR, peptide start residue: 96)”, -0.187.
“UniProt Q96Q04 (peptide sequence: ARPEVAPEGEPGAPDSR, peptide start residue: 1168)”: the log2 fold change was -0.973.
The same measure for “ZNF317 (peptide sequence: GAHQGACADWETPSK, peptide start residue: 121) (UniProt Q96PQ6)”: 0.496; for “UniProt Q96PU8 (peptide sequence: RSAELPDAVGPIVQLQEK, peptide start residue: 68)”: -0.308; for “MRPL48 (peptide sequence: EHTEEDFK, peptide start residue: 188) (UniProt Q96GC5)”: 0.215.
The same measure for “PLEKHA8 (peptide sequence: YITNKEEFTTLQK, peptide start residue: 372) (UniProt Q96JA3)”: 0.163.
On to “UniProt Q96KQ4 (peptide sequence: NLLGLYPR, peptide start residue: 1112)”, for which the log2 fold change was -0.0551.
As for “LINC00526 (peptide sequence: SAPCDLGASQR, peptide start residue: 47) (UniProt Q96FQ7)”, the figure is -0.153; as for “DUS3L (peptide sequence: RHQCEDIFGVQLEGAFPDTMTK, peptide start residue: 355) (UniProt Q96G46)”, 0.228.
The same measure for “ZNF845 (peptide sequence: HHIGDFCFQEMEK, peptide start residue: 80) (UniProt Q96IR2)”: 0.241; for “UniProt Q96JH8 (peptide sequence: VFGDSVCTGTHYK, peptide start residue: 67)”: -0.973; for “DDRGK1 (peptide sequence: EHEEYLK, peptide start residue: 185) (UniProt Q96HY6)”: -0.241.
As for “POM121 (peptide sequence: KVQLLPSR, peptide start residue: 507) (UniProt Q96HA1)”, the figure is -0.167.
